In the data set the test system is mouse cochlear explants. Conditions: for Therapeutic index in mouse cochlear explant (LD50/IC50): Table 1. As for the experimental part: Dab alone or Dab added 1 h before cisplatin (150 μM) to P3 FVB cochlear explants for 24 h.
Now referring to FIG. 9, testing of a B-Raf/MEK1/2 inhibitor combination in mouse cochlear explant cultures. Compounds alone or combination of the compounds were added 1 h before cisplatin (150 μM) to P3 FVB cochlear explants for 24 h, and number of outer hair cells per 160 μm of middle turn regions of the cochlea were counted by phalloidin staining, mean±SEM, P=*<0.05, P=***<0.001, compared to cisplatin alone by unpaired two-tailed Student's t-test.
Methods of using a zebrafish model system to evaluate small molecules capable of decreasing, inhibiting or preventing sensory hair cell damage or death are provided. Zebrafish are an advantageous animal model system for studying causes and prevention of hearing loss in comparison to mammalian animal model systems. The relative inaccessibility of hair cells in mammalian organisms limits their use as a high throughput model for identifying compounds that would prevent toxin mediated and other forms of hair cell death from occurring. The lateral line neuromast hair cells of zebrafish (Danio rerio) are structurally and functionally similar to mammalian sensory hair cells. […] Compounds alone or compounds added 1 h before cisplatin (150 μM) to P3 FVB cochlear explants for 24 h, and number of outer hair cells per 160 μm of middle turn regions of the cochlea were counted by phalloidin staining, mean±SEM, P=*<0.05, P=**<0.005, ***P<0.0005 compared to cisplatin alone by unpaired two-tailed Student's t-test.
Compounds alone (purple bar) or combination of the compounds were added 1 h before cisplatin (150 μM) to P3 FVB cochlear explants for 24 hrs, and number of outer hair cells per 160 μm of middle turn regions of the cochlea were counted by phalloidin staining, mean±SEM, P=*<0.05, P=**<0.005, compared to cisplatin alone by unpaired two-tailed Student's t-test.

Here are results for 4 molecules from US12427149B2, “Methods and compositions for the prevention and treatment of hearing loss” (Ting Therapeutics, Inc., priority 2019, dated 2025).

Regarding `Cn1c(Nc2ccc(C(F)(F)F)cc2)nc2cc(Oc3ccnc(-c4ncc(C(F)(F)F)[nH]4)c3)ccc21` [RAF-265], the “Therapeutic Index in mouse cochlear explants” value is “greater than 150”. For `O=C(Nc1cccc(Cl)c1)Nc1ncc(CCNc2ncnc3ccsc23)s1` [SNS-314], the “Therapeutic index in mouse cochlear explant (LD50/IC50)” value (“Therapeutic index … (LD50/IC50)” below) is greater than 100. As to `CC1(COc2ccc3c(c2)ncn3-c2ccc3cccc(N4CCC(N)CC4)c3n2)COC1` [Crenolanib], the “Therapeutic index … (LD50/IC50)” value is on record as greater than 14.

As for `FC(F)(F)c1ccc(/C=C/c2nc(COc3ccc(CCCCn4ccnn4)cc3)co2)cc1` [Mubritinib], the “Therapeutic Index in mouse cochlear explants” value is on record as greater than 200 and the “Therapeutic index … (LD50/IC50)” value is reported as greater than 500.
